# From patent publication US8846681B2, “Pyrimidyl cyclopentanes as AKT protein kinase inhibitors” (Array BioPharma, Inc., priority 2006, dated 2014)
# Sequences of proteins named here, by UniProt entry; tags and fusion partners are left off. A change or cut given only in a name is not applied to a line headed by its entry.
# UniProt P31749: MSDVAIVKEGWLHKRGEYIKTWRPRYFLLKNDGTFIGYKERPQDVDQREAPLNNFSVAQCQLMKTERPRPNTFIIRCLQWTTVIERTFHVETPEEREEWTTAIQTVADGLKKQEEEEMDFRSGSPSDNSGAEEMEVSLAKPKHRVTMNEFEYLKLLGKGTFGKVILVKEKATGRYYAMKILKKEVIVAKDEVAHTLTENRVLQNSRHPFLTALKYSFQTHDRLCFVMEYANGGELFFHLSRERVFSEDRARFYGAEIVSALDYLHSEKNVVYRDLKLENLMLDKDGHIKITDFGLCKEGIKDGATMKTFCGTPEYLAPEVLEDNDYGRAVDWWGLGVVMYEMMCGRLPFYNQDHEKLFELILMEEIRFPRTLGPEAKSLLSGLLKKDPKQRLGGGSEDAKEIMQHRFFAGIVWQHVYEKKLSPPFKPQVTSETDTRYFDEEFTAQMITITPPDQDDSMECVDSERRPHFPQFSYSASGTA
# Where a name gives a salt, the structure may show the parent alone. Some results were stated once for a whole list of compounds, not compound by compound.
# Biological target: full-length human recombinant active AKT-1 (Homo sapiens, UniProt P31749)
# Assay: AKT-1 Kinase Assay (IMAP fluorescence polarization)
# Format: biochemical
# Conditions: phosphorylation of fluorescently-labeled peptide (Crosstide), IMAP kit
row,Compound,IC50 [µM]
1,"C[C@@H]1CCc2ncnc(N3CCN(C(=O)[C@H](N)Cc4ccc(Cl)c(F)c4)C[C@@H]3C)c21 [Example 3, (R)-2-amino-3-(4-chloro-3-fluorophenyl)-1-((S)-3-methyl-4-((R)-5-methyl-6,7-dihydro-5H-cyclopenta[d]pyrimidin-4-yl)piperazin-1-yl)propan-1-one dihydrochloride]",< 10
2,"CN[C@H](Cc1ccc(Cl)cc1)C(=O)N1CCN(c2ncnc3c2[C@H](C)CC3)CC1 [Example 64, (R)-3-(4-chlorophenyl)-1-(4-((R)-5-methyl-6,7-dihydro-5H-cyclopenta[d]pyrimidin-4-yl)piperazin-1-yl)-2-(methylamino)propan-1-one]",< 10
3,"C[C@@H]1CCc2ncnc(N3CCN(C(=O)[C@H](N)Cc4ccc(F)c(F)c4)CC3)c21 [Example 75, (R)-2-amino-3-(3,4-difluorophenyl)-1-(4-((R)-5-methyl-6,7-dihydro-5H-cyclopenta[d]pyrimidin-4-yl)piperazin-1-yl)propan-1-one]",< 10
4,"C[C@@H]1CCc2ncnc(N3CCN(C(=O)C(CNCCO)c4ccc(Cl)cc4)CC3)c21 (stereo partly drawn) [Example 31, (R,S)-2-(4-chlorophenyl)-3-(2-hydroxyethylamino)-1-(4-((R)-5-methyl-6,7-dihydro-5H-cyclopenta[d]pyrimidin-4-yl)piperazin-1-yl)propan-1-one dihydrochloride]",< 10
5,"C[C@@H]1C[C@@H](F)c2ncnc(N3CCN(C(=O)[C@H](CNC4CCOCC4)c4ccc(Br)s4)CC3)c21 [Example 167, (S)-2-(5-bromothiophen-2-yl)-1-(4-((5R,7R)-7-fluoro-5-methyl-6,7-dihydro-5H-cyclopenta[d]pyrimidin-4-yl)piperazin-1-yl)-3-(tetrahydro-2H-pyran-4-ylamino)propan-1-one]",< 10
6,"CC(C)NC[C@@H](C(=O)N1CCN(c2ncnc3c2[C@H](C)C[C@H]3F)CC1)c1ccc(Br)s1 [Example 166, (S)-2-(5-bromothiophen-2-yl)-1-(4-((5R,7R)-7-fluoro-5-methyl-6,7-dihydro-5H-cyclopenta[d]pyrimidin-4-yl)piperazin-1-yl)-3-(isopropylamino)propan-1-one]",< 10
7,"C[C@@H]1C[C@@H](F)c2ncnc(N3CCN(C(=O)C(CNC4CCOCC4)c4ccc(Br)c(F)c4)CC3)c21 (stereo partly drawn) [Example 149, 2-(4-bromo-3-fluorophenyl)-1-(4-((5R,7R)-7-fluoro-5-methyl-6,7-dihydro-5H-cyclopenta[d]pyrimidin-4-yl)piperazin-1-yl)-3-(tetrahydro-2H-pyran-4-ylamino)propan-1-one]",< 10
8,"CC(C)NCC(C(=O)N1CCN(c2ncnc3c2[C@H](C)CC3)CC1)c1ccc(Br)c(F)c1 (stereo partly drawn) [Example 57, 2-(4-bromo-3-fluorophenyl)-3-(isopropylamino)-1-(4-((R)-5-methyl-6,7-dihydro-5H-cyclopenta[d]pyrimidin-4-yl)piperazin-1-yl)propan-1-one]",< 10
9,"C[C@@H]1CCc2ncnc(N3CCN(C(=O)C(CC(C)(C)N)c4ccc(F)cc4)CC3)c21 (stereo partly drawn) [Example 17, (R,S) 4-amino-2-(4-fluorophenyl)-4-methyl-1-(4-((R)-5-methyl-6,7-dihydro-5H-cyclopenta[d]pyrimidin-4-yl)piperazin-1-yl)pentan-1-one dihydrochloride]",< 10
10,"CC(C)NC[C@@H](C(=O)N1CCN(c2ncnc3c2[C@H](C)C[C@H]3F)CC1)c1ccc(Br)cc1 [Example 156, (S)-2-(4-bromophenyl)-1-(4-((5R,7R)-7-fluoro-5-methyl-6,7-dihydro-5H-cyclopenta[d]pyrimidin-4-yl)piperazin-1-yl)-3-(isopropylamino)propan-1-one]",< 10
11,"CC(C)NCC(C(=O)N1CCN(c2ncnc3c2[C@H](C)CC3)CC1)c1ccc(C#N)cc1 (stereo partly drawn) [Example 47, 4-(3-(isopropylamino)-1-(4-((R)-5-methyl-6,7-dihydro-5H-cyclopenta[d]pyrimidin-4-yl)piperazin-1-yl)-1-oxopropan-2-yl)benzonitrile]",< 10
12,"CC(C)NC[C@@H](C(=O)N1CCN(c2ncnc3c2[C@H](C)C[C@H]3F)CC1)c1ccc(Cl)c(Cl)c1 [Example 130, (S)-2-(3,4-dichlorophenyl)-1-(4-((5R,7R)-7-fluoro-5-methyl-6,7-dihydro-5H-cyclopenta[d]pyrimidin-4-yl)piperazin-1-yl)-3-(isopropylamino)propan-1-one]",< 10
13,"C[C@@H]1CCc2ncnc(N3CCN(C(=O)[C@H](N)Cc4ccc(F)c(F)c4)C[C@@H]3C)c21 [Example 76, (R)-2-amino-3-(3,4-difluorophenyl)-1-((S)-3-methyl-4-((R)-5-methyl-6,7-dihydro-5H-cyclopenta[d]pyrimidin-4-yl)piperazin-1-yl)propan-1-one]",< 10
14,"CC(=O)N1CCN(C[C@@H](C(=O)N2CCN(c3ncnc4c3[C@H](C)C[C@@H]4F)CC2)c2ccc(Cl)cc2)CC1 [Example 111, (S)-3-(4-acetylpiperazin-1-yl)-2-(4-chlorophenyl)-1-(4-((5R,7S)-7-fluoro-5-methyl-6,7-dihydro-5H-cyclopenta[d]pyrimidin-4-yl)piperazin-1-yl)propan-1-one]",< 10
15,"(S)-2-(5-bromothiophen-2-yl)-3-(cyclopropylmethyalmino)-1-(4-((5R,7S)-7-fluoro-5-methyl-6,7-dihydro-5H-cyclopenta[d]pyrimidin-4-yl)piperazin-1-yl)propan-1-one [Example 168]",< 10
16,"CC1(C)CCc2ncnc(N3CCN(C(=O)[C@H](N)Cc4ccc(Cl)cc4)CC3)c21 [Example 70, (R)-2-amino-3-(4-chlorophenyl)-1-(4-(5,5-dimethyl-6,7-dihydro-5H-cyclopenta[d]pyrimidin-4-yl)piperazin-1-yl)propan-1-one]",< 10
17,"C[C@@H]1CCc2ncnc(N3CCN(C(=O)[C@H](N)Cc4ccc([N+](=O)[O-])cc4)C[C@@H]3C)c21 [Example 81, (R)-2-amino-1-((S)-3-methyl-4-((R)-5-methyl-6,7-dihydro-5H-cyclopenta[d]pyrimidin-4-yl)piperazin-1-yl)-3-(4-nitrophenyl)propan-1-one]",< 10
18,"C[C@@H]1C[C@@H](F)c2ncnc(N3CCN(C(=O)[C@H](CNC=O)c4ccc(Br)cc4)CC3)c21 [Example 153, N-((S)-2-(4-bromophenyl)-3-(4-((5R,7R)-7-fluoro-5-methyl-6,7-dihydro-5H-cyclopenta[d]pyrimidin-4-yl)piperazin-1-yl)-3-oxopropyl)formamide]",< 10
19,"C[C@@H]1CCc2ncnc(N3CCN(C(=O)[C@H](N)Cc4ccc(Br)s4)CC3)c21 [Example 163, (R)-2-amino-3-(5-bromothiophen-2-yl)-1-(4-((R)-5-methyl-6,7-dihydro-5H-cyclopenta[d]pyrimidin-4-yl)piperazin-1-yl)propan-1-one]",< 10
20,"C[C@@H]1C[C@H](F)c2ncnc(N3CCN(C(=O)[C@H](CNCC4CC4)c4ccc(Cl)cc4)CC3)c21 [Example 89, (S)-2-(4-chlorophenyl)-3-(cyclopropylmethylamino)-1-(4-((5R,7S)-7-fluoro-5-methyl-6,7-dihydro-5H-cyclopenta[d]pyrimidin-4-yl)piperazin-1-yl)propan-1-one]",< 10
21,"C[C@@H]1C[C@@H](F)c2ncnc(N3CCN(C(=O)[C@H](CNC4CCOCC4)c4ccc(Cl)c(Cl)c4)CC3)c21 [Example 125, (S)-2-(3,4-dichlorophenyl)-1-(4-((5R,7R)-7-fluoro-5-methyl-6,7-dihydro-5H-cyclopenta[d]pyrimidin-4-yl)piperazin-1-yl)-3-(tetrahydro-2H-pyran-4-ylamino)propan-1-one]",< 10
22,"C[C@@H]1C[C@H](F)c2ncnc(N3CCN(C(=O)[C@@H](CN4CCN(CCO)CC4)c4ccc(Cl)cc4)CC3)c21 [Example 105, (R)-2-(4-chlorophenyl)-1-(4-((5R,7S)-7-fluoro-5-methyl-6,7-dihydro-5H-cyclopenta[d]pyrimidin-4-yl)piperazin-1-yl)-3-(4-(2-hydroxyethyl)piperazin-1-yl)propan-1-one]",< 10
23,"C[C@@H]1C[C@H](F)c2ncnc(N3CCN(C(=O)[C@H](CNCC4CC4)c4ccc(Br)c(F)c4)CC3)c21 [Example 144, (S)-2-(4-bromo-3-fluorophenyl)-3-(cyclopropylmethylamino)-1-(4-((5R,7S)-7-fluoro-5-methyl-6,7-dihydro-5H-cyclopenta[d]pyrimidin-4-yl)piperazin-1-yl)propan-1-one]",< 10
24,"C[C@@H]1CCc2ncnc(N3CCN(C(=O)C(CN4CC(O)C4)c4ccc(Cl)cc4)CC3)c21 (stereo partly drawn) [Example 45, 2-(4-chlorophenyl)-3-(3-hydroxyazetidin-1-yl)-1-(4-((R)-5-methyl-6,7-dihydro-5H-cyclopenta[d]pyrimidin-4-yl)piperazin-1-yl)propan-1-one]",< 10
25,"C[C@@H]1CCc2ncnc(N3CCN(C(=O)[C@H](N)Cc4ccccc4F)C[C@@H]3C)c21 [Example 80, (R)-2-amino-3-(2-fluorophenyl)-1-((S)-3-methyl-4-((R)-5-methyl-6,7-dihydro-5H-cyclopenta[d]pyrimidin-4-yl)piperazin-1-yl)propan-1-one]",< 10
26,"CC(C)N(C)CC(C(=O)N1CCN(c2ncnc3c2[C@H](C)CC3)CC1)c1ccc(Cl)cc1 (stereo partly drawn) [Example 35, (R,S)-2-(4-chlorophenyl)-3-(isopropyl(methyl)amino)-1-(4-((R)-5-methyl-6,7-dihydro-5H-cyclopenta[d]pyrimidin-4-yl)piperazin-1-yl)propan-1-one dihydrochloride]",< 10
27,"C[C@@H]1CCc2ncnc(N3CCN(C(=O)[C@H](N)Cc4ccc(Cl)c(Cl)c4)C[C@@H]3C)c21 [Example 68, (R)-2-amino-3-(3,4-dichlorophenyl)-1-((S)-3-methyl-4-((R)-5-methyl-6,7-dihydro-5H-cyclopenta[d]pyrimidin-4-yl)piperazin-1-yl)propan-1-one]",< 10
28,"CCN1CCN(CC(C(=O)N2CCN(c3ncnc4c3[C@H](C)C[C@H]4F)CC2)c2ccc(Cl)cc2)CC1 (stereo partly drawn) [Example 117, 2-(4-chlorophenyl)-3-(4-ethylpiperazin-1-yl)-1-(4-((5R,7R)-7-fluoro-5-methyl-6,7-dihydro-5H-cyclopenta[d]pyrimidin-4-yl)piperazin-1-yl)propan-1-one]",< 10
